Results as given in article PMC8093829.
These are yes or no findings as the source states them, for the method shown. Some results given as binding are weak or reduced against the parent protein; the word gives no strength.

The chains behind the UniProt entries cited, without tags or fusion partners. Residues count along the entry.
UniProt P00805, residues 23-348: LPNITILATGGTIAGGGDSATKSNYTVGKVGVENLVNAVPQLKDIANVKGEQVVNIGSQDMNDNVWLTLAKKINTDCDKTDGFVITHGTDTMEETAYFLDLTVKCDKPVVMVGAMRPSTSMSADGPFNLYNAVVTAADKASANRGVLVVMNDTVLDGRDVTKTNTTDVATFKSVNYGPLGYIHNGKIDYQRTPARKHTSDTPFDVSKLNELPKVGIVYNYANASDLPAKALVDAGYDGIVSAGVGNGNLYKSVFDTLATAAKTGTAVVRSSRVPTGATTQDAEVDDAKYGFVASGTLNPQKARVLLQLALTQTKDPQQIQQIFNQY

Target: recombinant L-asparaginase refolded from E. coli inclusion bodies (UniProt P00805)
Assay: SEC; HPLC, TSK gel G3000SWxl, 20 mM Tris-HCl and 100 mM NaCl; refolded L-asparaginase concentrated to 2 mg/ml, after freeze-thaw solubilization in 2 M urea with DTT, without DTT, or in 8 M urea; from washed inclusion bodies, no chromatography before; both purified

- binding: binds weakly
Substance: recombinant L-asparaginase refolded from E. coli inclusion bodies (from UniProt P00805 23-348) (enzyme)
